Results are given in words; binding and its absence hold for the method and conditions named. In cells and extracts the contact can be indirect. Some binding calls cover weakened binding; strength is not graded here. Where a sequence is shown, tags or fusion partners need not be part of it.
Target: T1, untagged human Zcyto7 (human) (UniProt Q9UHF5)
T1 sequence (looked up): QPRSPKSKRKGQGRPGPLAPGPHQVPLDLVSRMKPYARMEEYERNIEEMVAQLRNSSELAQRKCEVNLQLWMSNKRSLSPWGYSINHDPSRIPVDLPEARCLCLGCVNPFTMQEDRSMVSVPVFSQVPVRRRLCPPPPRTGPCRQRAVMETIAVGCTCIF
Test: co-expression and co-purification on anti-EE tag antibody affinity; interaction not due to interchain disulfide bonding

B1: Human Ztgfβ-9 protein (ligand)
chain: AGAPRAGRRPARPRGCADRPEELLEQLYGRLAAGVLSAFHHTLQLGPREQARNASCPAGGRPADRRFRPPTNLRSVSPWAYRISYDPARYPRYLPEAYCLCRGCLTGLFGEEDVRFRSAPVYMPTVVLRRTPACAGGRSVYTEAYVTIPVGCTCVPEPEKDADSINSSIDKQGAKLLLGPNDAPAGP
notes: Expressed in BHK cells both with and without a C-terminal Glu-Glu tag; It migrated at 29 kDa reduced and 49 kDa non-reduced, read as a disulfide cross-linked homodimer
binding: binds

— US20040132136A1 (ZymoGenetics, published 2004)
